{"source": "paper PMC7099625", "about": "“Exploration of thiaheterocyclic hHDAC6 inhibitors as potential antiplasmodial agents” (Future Medicinal Chemistry, 2017)", "data": [{"test_system": "P. falciparum (Dd2)", "test": "Antiplasmodial parasite lactate dehydrogenase assay, chloroquine-resistant strain Dd2", "assay_type": "cell-based, Plasmodium falciparum", "conditions": "ratio Dd2 vs NF54", "method": "Continuous in vitro cultures of asexual erythrocyte stages of P. falciparum were maintained using a modified method of Trager and Jensen. Quantitative assessment of antiplasmodial activity in vitro was determined via the parasite lactate dehydrogenase assay using a modified method described by Makler. The test samples were prepared to a 20 mg/ml stock solution in 100% DMSO. Stock solutions were stored at -20°C. Further dilutions were prepared in complete medium on the day of the experiment. CQ and artesunate were used as the reference drugs. A full dose–response was performed to determine the concentration inhibiting 50% of parasite growth (IC50 value). Test samples were tested at a starting concentration of 100 μg/ml, which was then serially diluted twofold in complete medium to give 10 concentrations; with the lowest concentration being 0.2 μg/ml. The same dilution technique was used for all samples. References were tested at a starting concentration of 1 μg/ml.\nThe antiplasmodial activity of this set of structures was first determined through a modified parasite lactate dehydrogenase assay against a CQ-sensitive (CQS) strain of P. falciparum (NF54). […] Finally, a selectivity index (SI = IC50 CHO/IC50 NF54) and a resistance index (RI = IC50 Dd2/IC50 NF54) was calculated to be able to easily compare the therapeutic window (active concentration vs toxic concentration) and sensitivity toward resistance developing.", "values": [{"smiles": "O=C(NO)c1ccc(CN2c3cc(Cl)ccc3S(=O)(=O)CC3CCCC32)cc1", "note": "(racemic) [Compound 3e]", "RI (resistance index) = IC50 (Dd2)/IC50 (NF54)": 0.9}, {"smiles": "O=C(NO)c1cccc(Cn2c3c(c4ccccc42)CSCC3)c1", "note": "[Compound 1n]", "RI (resistance index) = IC50 (Dd2)/IC50 (NF54)": 1.5}, {"smiles": "CCN(CC)CCCC(C)Nc1ccnc2cc(Cl)ccc12", "note": "(centres unmarked) [Chloroquine, chloroquine, reference compound]", "RI (resistance index) = IC50 (Dd2)/IC50 (NF54)": 17.5}, {"smiles": "O=C(NO)c1ccc(Cn2c3c(c4cc(F)ccc42)C[S+]([O-])CC3)cc1", "note": "(racemic) [Compound 1k]", "RI (resistance index) = IC50 (Dd2)/IC50 (NF54)": 2.0}, {"smiles": "O=C(NO)c1ccc(CN2c3ccccc3S(=O)(=O)CC3CCCC32)cc1", "note": "(centres unmarked) [Compound 3d]", "RI (resistance index) = IC50 (Dd2)/IC50 (NF54)": 2.6}, {"smiles": "O=C(NO)c1ccc(CN2c3cc(C(F)(F)F)ccc3S(=O)(=O)CC3CCCC32)cc1", "note": "(racemic) [Compound 3f]", "RI (resistance index) = IC50 (Dd2)/IC50 (NF54)": 0.8}, {"smiles": "O=C(NO)c1ccc(Cn2c3c(c4cc(F)ccc42)CSCC3)cc1", "note": "[Compound 1c]", "RI (resistance index) = IC50 (Dd2)/IC50 (NF54)": 1.4}, {"smiles": "O=C(NO)c1cccc(Cn2c3c(c4cc(F)ccc42)CSCC3)c1", "note": "[Compound 1o]", "RI (resistance index) = IC50 (Dd2)/IC50 (NF54)": 1.1}, {"smiles": "O=C(NO)c1ccc(NCc2csc3cc(-c4ccccc4)ccc23)cc1", "note": "[Compound 2i]", "RI (resistance index) = IC50 (Dd2)/IC50 (NF54)": 0.3}, {"smiles": "O=C(NO)c1ccc(Cn2c3c(c4ccccc42)C[S+]([O-])CC3)cc1", "note": "(racemic) [Compound 1j]", "RI (resistance index) = IC50 (Dd2)/IC50 (NF54)": 1.0}, {"smiles": "O=C(NO)c1ccc(Cn2c3c(c4cc(Br)ccc42)CS(=O)(=O)CC3)cc1", "note": "[Compound 1i]", "RI (resistance index) = IC50 (Dd2)/IC50 (NF54)": 3.9}, {"smiles": "O=C(NO)c1ccc(NCc2csc3ccc(Br)cc23)cc1", "note": "[Compound 2c]", "RI (resistance index) = IC50 (Dd2)/IC50 (NF54)": 2.4}, {"smiles": "O=C(NO)c1ccc(NCc2csc3cc(Br)ccc23)cc1", "note": "[Compound 2g]", "RI (resistance index) = IC50 (Dd2)/IC50 (NF54)": 1.2}, {"smiles": "O=C(NO)c1ccc(NCc2csc3ccccc23)cc1", "note": "[Compound 2a]", "RI (resistance index) = IC50 (Dd2)/IC50 (NF54)": 1.3}]}]}
